This note sets out measurements from PMC5456407.

Sequences of proteins named here, by UniProt entry; tags and fusion partners are left off. A change or cut given only in a name is not applied to a line headed by its entry.
UniProt Q86UT6: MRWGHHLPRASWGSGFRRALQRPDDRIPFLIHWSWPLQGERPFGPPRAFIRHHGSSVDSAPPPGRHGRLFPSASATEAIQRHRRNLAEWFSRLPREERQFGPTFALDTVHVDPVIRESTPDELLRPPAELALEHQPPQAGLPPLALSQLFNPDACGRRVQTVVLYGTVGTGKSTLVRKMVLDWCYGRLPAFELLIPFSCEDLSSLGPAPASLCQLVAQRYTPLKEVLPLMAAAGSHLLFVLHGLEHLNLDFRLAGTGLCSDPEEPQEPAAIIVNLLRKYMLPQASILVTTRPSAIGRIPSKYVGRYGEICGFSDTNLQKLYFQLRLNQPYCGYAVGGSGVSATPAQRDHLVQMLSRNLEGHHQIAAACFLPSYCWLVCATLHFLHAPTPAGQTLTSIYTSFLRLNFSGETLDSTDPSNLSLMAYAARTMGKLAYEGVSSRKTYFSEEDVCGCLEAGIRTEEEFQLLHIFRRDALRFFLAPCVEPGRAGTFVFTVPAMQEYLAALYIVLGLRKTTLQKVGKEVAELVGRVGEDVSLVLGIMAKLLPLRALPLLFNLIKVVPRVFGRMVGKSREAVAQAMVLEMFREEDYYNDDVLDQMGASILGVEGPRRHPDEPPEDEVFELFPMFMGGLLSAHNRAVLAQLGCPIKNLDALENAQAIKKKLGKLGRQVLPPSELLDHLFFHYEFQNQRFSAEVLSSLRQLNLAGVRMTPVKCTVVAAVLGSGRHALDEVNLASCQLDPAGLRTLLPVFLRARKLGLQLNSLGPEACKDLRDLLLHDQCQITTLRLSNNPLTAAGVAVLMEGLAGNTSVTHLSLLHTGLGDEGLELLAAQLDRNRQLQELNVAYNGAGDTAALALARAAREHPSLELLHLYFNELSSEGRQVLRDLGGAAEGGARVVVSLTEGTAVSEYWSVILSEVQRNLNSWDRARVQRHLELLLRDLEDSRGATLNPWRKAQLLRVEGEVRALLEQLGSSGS
UniProt Q9UNN5: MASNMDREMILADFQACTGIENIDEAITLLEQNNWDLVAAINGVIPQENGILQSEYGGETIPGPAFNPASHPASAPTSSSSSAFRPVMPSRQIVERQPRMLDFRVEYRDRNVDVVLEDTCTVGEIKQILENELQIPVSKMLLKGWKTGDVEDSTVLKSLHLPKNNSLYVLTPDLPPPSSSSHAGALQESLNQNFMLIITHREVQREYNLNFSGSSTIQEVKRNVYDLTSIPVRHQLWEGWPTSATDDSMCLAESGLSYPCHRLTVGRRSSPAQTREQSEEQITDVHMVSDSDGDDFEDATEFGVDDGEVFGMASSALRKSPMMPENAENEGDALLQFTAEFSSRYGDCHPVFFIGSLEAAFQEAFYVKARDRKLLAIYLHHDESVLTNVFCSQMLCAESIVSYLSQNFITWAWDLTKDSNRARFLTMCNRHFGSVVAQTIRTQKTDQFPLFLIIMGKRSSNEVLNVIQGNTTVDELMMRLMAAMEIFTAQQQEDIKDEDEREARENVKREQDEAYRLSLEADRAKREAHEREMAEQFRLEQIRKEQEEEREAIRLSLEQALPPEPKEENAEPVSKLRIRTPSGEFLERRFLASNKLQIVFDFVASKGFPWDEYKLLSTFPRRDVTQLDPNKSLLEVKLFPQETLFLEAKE

Results are given in words; binding and its absence hold for the method and conditions named. Binding seen in cells or lysates may run through a third protein. Here binding means that the protein was enriched with, or labelled near, the bait; the list need not be complete.

This test has as its target GST-tagged N-terminal domain (amino acids 1–225) of NLRX1 (UniProt Q86UT6). The test can be described thus: affinity purification with mass spectrometry; GST-NLRX1-N (aa 1-225) or empty GST vector expressed in HEK293T; lysates precipitated with GST beads, 4-15% Nu-PAGE, silver staining, bands exclusive to the GST-NLRX1-N lane identified by mass spectrometry.

In the case of “FAS-associated factor 1 (FAF1), endogenous in HEK293T cells (from UniProt Q9UNN5 1-650)”, the binding result was “binds”.
